At least one read-out could not be matched to a standard name with certainty.
Target: T1, hCB1 (Homo sapiens, UniProt P21554)
Test: Antagonism of CB1 receptors expressed in CHO cells, cAMP assay against CP 55,940 (Protocol IX.1)
Format: cell-based
Design: expressed in transfected cells; host or cells: CHO (h-CB1/CHO, G418-selected)
Settings: concentration not given
Description: (§1) IX. Assay for Determining Agonist and Antagonist Activity to CB1 and CB2 Receptors
(§2) 1. Antagonism of CB1/CB2 Receptors Expressed in CHO Cells.
h-CB1/CHO or h-CB2/CHO cells were grown in HAM's F12 DMEM medium (Sigma) with 10% FBS (Hyclone), 1% penicillin-streptomycin solution and 400 μg/ml of G418 (Sigma). 5000 cells were seeded per well in a 96 well plate and incubated for 24 hours at 37° C. in 5% CO2. On the day of assay, cells were washed with warm Krebs buffer containing 0.1% fatty acid free (FAF) BSA (Sigma) and re-suspended in the same buffer containing 1 mM IBMX. […] At the end of incubation, cells were lysed using lysis reagent from the cAMP estimation kit and cAMP was quantitated by the chemiluminescence method described in the manufacturer's instructions (DiscoveRX). EC50 values were calculated from dose response curves by nonlinear regression analysis using PRISM software.

By UniProt entry, the sequences of proteins in these tests, tags left out.
UniProt P21554, whole entry: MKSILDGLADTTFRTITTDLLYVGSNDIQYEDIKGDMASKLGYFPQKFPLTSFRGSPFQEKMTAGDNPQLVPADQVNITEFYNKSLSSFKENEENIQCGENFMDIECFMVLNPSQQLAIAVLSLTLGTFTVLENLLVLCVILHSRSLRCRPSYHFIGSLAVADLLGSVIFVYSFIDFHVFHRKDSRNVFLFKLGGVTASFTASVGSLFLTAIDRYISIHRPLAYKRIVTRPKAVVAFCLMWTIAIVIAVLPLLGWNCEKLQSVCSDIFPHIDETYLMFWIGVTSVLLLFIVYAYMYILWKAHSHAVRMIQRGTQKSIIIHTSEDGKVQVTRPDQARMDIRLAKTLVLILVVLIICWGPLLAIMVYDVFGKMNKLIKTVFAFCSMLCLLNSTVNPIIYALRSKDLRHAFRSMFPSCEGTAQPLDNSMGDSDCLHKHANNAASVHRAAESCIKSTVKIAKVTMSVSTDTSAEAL
UniProt P34972, whole entry: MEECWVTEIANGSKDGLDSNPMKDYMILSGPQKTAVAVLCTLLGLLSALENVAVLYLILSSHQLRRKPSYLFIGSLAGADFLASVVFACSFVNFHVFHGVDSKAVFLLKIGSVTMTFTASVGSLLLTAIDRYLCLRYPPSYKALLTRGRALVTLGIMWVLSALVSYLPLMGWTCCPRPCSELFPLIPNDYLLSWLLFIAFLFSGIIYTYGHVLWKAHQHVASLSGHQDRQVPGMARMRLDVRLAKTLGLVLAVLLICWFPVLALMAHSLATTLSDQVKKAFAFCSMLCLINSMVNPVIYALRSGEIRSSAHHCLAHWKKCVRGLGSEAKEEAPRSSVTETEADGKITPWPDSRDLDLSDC

With `C[C@H](NC(=O)c1nn(-c2ccc(Cl)cc2)c2c1C1CC3CC(C1)CC2C3)c1ccccc1` [Example 117] the “hCB1 Antagonism” value was 14.91%.

Target: T1, hCB1
Test: In vitro binding assay using hCB1-CHO membranes, [3H]-CP-55,940 displacement (Protocol II)
Design: expressed in transfected cells; host or cells: CHO (hCB1-CHO, generated in-house)
Settings: not given
Description: II. Protocol for In Vitro Assay Using hCB1-CHO Membranes
The reaction was set up in a total volume of 200 μl in PEI (Poly(ethyleneimine)) (0.2%) precoated Millipore GFB (Glass Fibre-B) filter plates. 1 mM stocks of test compounds were prepared in DMSO and tested at a final concentration of 300 nM. The non-specific binding was determined by 0.5 μM CP-55, 940. […] The assay mixture (with or without the test compound) was incubated at 37° C. for 1 hour. The reaction was stopped by rapid filtration under vacuum and the radioactivity on the filters was measured by liquid scintillation counting.

Point of comparison: `O=C(NCC1CCCO1)c1nn(-c2ccc(F)cc2F)c2c1C1CCC2C1` (stereo not shown) [Example 322, N(3)-(Tetrahydro-2-furanylmethyl)-1-(2,4-difluorophenyl)-4,5,6,7-tetrahydro-1H-4,7-methano-indazole-3-carboxamide], “% Displacement Protocol II” value 16.74%. Against it:
- O=C(NC1CCCCC1)c1nn(-c2ccc(Cl)cc2)c2c1C1CC3CC(C1)CC2C3 [Example 106, N(7)-Cyclohexyl-5-(4-chlorophenyl)-5,6-diazatetracyclo[7.3.1.1^3,11.0^4,8]tetradeca-4(8),6-diene-7-carboxamide] — lower, 15.07%
- CC(C)(C)NC(=O)c1nn(-c2ccc(F)cc2F)c2c1C1CCC2C1 (stereo not shown) [Example 303, N(3)-(tert-Butyl)-1-(2,4-difluorophenyl)-4,5,6,7-tetrahydro-1H-4,7-methano-indazole-3-carboxamide] — lower, 9.41%
- CCCCCNC(=O)c1nn(-c2ccc(F)cc2F)c2c1C1CCC2C1 (stereo not shown) [Example 306, N5-n-Pentyl-3-(2,4-difluorophenyl)-3,4-diazatricyclo[5.2.1.0^2,6]deca-2(6),4-diene-5-carboxamide] — lower, 3.56%
- O=C(NCc1ccc(Cl)cc1Cl)c1nn(-c2ccc(F)cc2F)c2c1C1CCC2C1 (stereo not shown) [Example 307, N5-(2,4-Dichlorobenzyl)-3-(2,4-difluorophenyl)-3,4-diazatricyclo[5.2.1.0^2,6]deca-2(6),4-diene-5-carboxamide] — higher, 26.11%
- O=C(NC1(c2ccccc2)CC1)c1nn(-c2ccc(F)cc2F)c2c1C1CCC2C1 (stereo not shown) [Example 308, N5-(1-phenylcyclopropyl)-3-(2,4-difluorophenyl)-3,4-diazatricyclo[5.2.1.0^2,6]deca-2(6),4-diene-5-carboxamide] — higher, 91.26%
- O=C(NC1C2CC3CC(C2)CC1C3)c1nn(-c2ccc(F)cc2F)c2c1C1CCC2C1 (stereo not shown) [Example 309, N5-(2-Adamantyl)-3-(2,4-difluorophenyl)-3,4-diazatricyclo[5.2.1.0^2,6]deca-2(6),4-diene-5-carboxamide] — higher, 92.57%
- CC1(NC(=O)c2nn(-c3ccc(F)cc3F)c3c2C2CCC3C2)C2CC3CC(C2)CC1C3 (stereo not shown) [Example 310, N5-(2-Methyl-2-adamantyl)-3-(2,4-difluorophenyl)-3,4-diazatricyclo[5.2.1.0^2,6]deca-2(6),4-diene-5-carboxamide] — higher, 96.75%
- CCC(C)(C)NC(=O)c1nn(-c2ccc(F)cc2F)c2c1C1CCC2C1 (stereo not shown) [Example 313, N(3)-(tert-Pentyl)-1-(2,4-difluorophenyl)-4,5,6,7-tetrahydro-1H-4,7-methano-indazole-3-carboxamide] — higher, 65.99%
- O=C(NCC1CC1)c1nn(-c2ccc(F)cc2F)c2c1C1CCC2C1 (stereo not shown) [Example 314, N(3)-Cyclopropanmethyl-1-(2,4-difluorophenyl)-4,5,6,7-tetrahydro-1H-4,7-methano-indazole-3-carboxamide] — higher, 23.25%
- O=C(NC1CCC1)c1nn(-c2ccc(F)cc2F)c2c1C1CCC2C1 (stereo not shown) [Example 315, N(3)-Cyclobutyl-1-(2,4-difluorophenyl)-4,5,6,7-tetrahydro-1H-4,7-methano-indazole-3-carboxamide] — higher, 36.78%
- O=C(N[C@@H](CO)c1ccccc1)c1nn(-c2ccc(F)cc2F)c2c1C1CCC2C1 (stereo partly drawn) [Example 320, N(3)-[(1R)-2-Hydroxy-1-phenylethyl]-1-(2,4-difluorophenyl)-4,5,6,7-tetrahydro-1H-4,7-methano-indazole-3-carboxamide] — higher, 39.42%
- CC(C)(C)NC(=O)c1nn(-c2ccc(F)cc2)c2c1C1CCC2C1 (stereo not shown) [Example 323, N(3)-(tert-Butyl)-1-(4-fluorophenyl)-4,5,6,7-tetrahydro-1H-4,7-methano-indazole-3-carboxamide] — lower, 4.25%
- CC(C)(C)NC(=O)c1nn(-c2ccc(Br)cc2)c2c1C1CCC2C1 (stereo not shown) [Example 324, N(3)-(tert-Butyl)-1-(4-bromophenyl)-4,5,6,7-tetrahydro-1H-4,7-methano-indazole-3-carboxamide] — lower, 7.23%
- CC12CCC(c3c(C(=O)NC45CC6CC(CC(C6)C4)C5)nn(-c4ccc(F)cc4F)c31)C2(C)C (stereo not shown) [Example 405, N(3)-(Adamantan-1-yl)-1-(2,4-difluorophenyl)-7,8,8-trimethyl-4,5,6,7-tetrahydro-1H-4,7-methano-indazole-3-carboxamide] — higher, 63.21%
- CC12CCC(C1)C(C)(C)C2NC(=O)c1nn(-c2ccc(F)cc2F)c2c1C1CCC2(C)C1(C)C (stereo not shown) [Example 406, N(3)-(1,3,3-Trimethylbicyclo[2.2.1]hept-2-yl)-1-(2,4-difluorophenyl)-7,8,8-trimethyl-4,5,6,7-tetrahydro-1H-4,7-methano-indazole-3-carboxamide] — higher, 72.49%
- Cl.O=C(NN1CCCCC1)c1nn(-c2ccc(Cl)cc2Cl)c2c1C1CCC2c2ccccc21 (stereo not shown) [Example 503, N(12)-Piperidino-10-(2,4-dichlorophenyl)-10,11-diazatetracyclo[6.5.2.0^2,7.0^9,13]pentadeca-2,4,6,9(13),11-pentaene-12-carboxamide hydrochloride] — higher, 56.25%
- O=C(NC12CC3CC(CC(C3)C1)C2)c1nn(-c2ccc(Cl)cc2Cl)c2c1C1CCC2c2ccccc21 (stereo not shown) [Example 506, N(12)-(Adamantan-1yl)-10-(2,4-dichlorophenyl)-10,11-diazatetracyclo[6.5.2.0^2,7.0^9,13]pentadeca-2,4,6,9(13),11-pentaene-12-carboxamide] — lower, 0%
- CC(C)(NC(=O)c1nn(-c2ccc(F)cc2F)c2c1C1CCC2c2ccccc21)c1ccccc1 (stereo not shown) [Example 509, N12-(1-Methyl-1-phenylethyl)-10-(2,4-difluorophenyl)-10,11-diazatetracyclo[6.5.2.0^2,7.0^9,13]pentadeca-2,4,6,9(13),11-pentaene-12-carboxamide] — higher, 93.35%
- CCC(C)(C)NC(=O)c1nn(-c2ccc(F)cc2F)c2c1C1CCC2CC1 [Example 802, N(5)-(tert-Pentyl)-3-(2,4-difluorophenyl)-3,4-diazatricyclo[5.2.2.0^2,6]undeca-2(6),4-diene-5-carboxamide] — higher, 81.33%

Target: hCB2 (Homo sapiens, UniProt P34972)
Test: Antagonism of CB2 receptors expressed in CHO cells, cAMP assay against CP 55,940 (Protocol IX.1)
Format: cell-based
Design: expressed in transfected cells; host or cells: CHO (h-CB2/CHO, G418-selected)
Settings: concentration not given
Description: as §1, §2
h-CB1/CHO or h-CB2/CHO cells were grown in HAM's F12 DMEM medium (Sigma) with 10% FBS (Hyclone), 1% penicillin-streptomycin solution and 400 μg/ml of G418 (Sigma). 5000 cells were seeded per well in a 96 well plate and incubated for 24 hours at 37° C. in 5% CO2. On the day of assay, cells were washed with warm Krebs buffer containing 0.1% fatty acid free (FAF) BSA (Sigma) and re-suspended in the same buffer containing 1 mM IBMX. Test antagonist or reference compound (AM 251 (1-(2,4-dichlorophenyl)-5-(4-iodophenyl)-4-methyl-N-(1-piperidyl)pyrazole-3-carboxamide) for CB1 and SR144528 for CB2) diluted in FAFBSA+IBMX+Krebs buffer was added to the cells and incubated for 10 minutes at room temperature. CP 55,940 (30 nM final concentration for CB1 testing and 10 nM of the same for CB2 testing) was added to cells followed by forskolin (10 μM final concentration) and incubated for 30 minutes at room temperature. At the end of incubation, cells were lysed using lysis reagent from the cAMP estimation kit and cAMP was quantitated by the chemiluminescence method described in the manufacturer's instructions (DiscoveRX). EC50 values were calculated from dose response curves by nonlinear regression analysis using PRISM software.

For `O=C(NC1CCCCC1)c1nn(-c2ccc(Cl)cc2)c2c1C1CC3CC(C1)CC2C3` [Example 106, N(7)-Cyclohexyl-5-(4-chlorophenyl)-5,6-diazatetracyclo[7.3.1.1^3,11.0^4,8]tetradeca-4(8),6-diene-7-carboxamide], the “hCB2 Antagonism” value was 50.90%.

Reference: US7923465B2, “Cannabinoid receptor ligands, pharmaceutical compositions containing them, and process for their preparation” (priority 2005, dated 2011)
